Test results published in the supplement of paper PMC10849652.
The list shows a part of the results.

By UniProt entry, the sequences of proteins in these tests, tags left out. Where a name states a change or a piece, a line headed by the entry shows the natural chain unless it says otherwise.
UniProt Q14147: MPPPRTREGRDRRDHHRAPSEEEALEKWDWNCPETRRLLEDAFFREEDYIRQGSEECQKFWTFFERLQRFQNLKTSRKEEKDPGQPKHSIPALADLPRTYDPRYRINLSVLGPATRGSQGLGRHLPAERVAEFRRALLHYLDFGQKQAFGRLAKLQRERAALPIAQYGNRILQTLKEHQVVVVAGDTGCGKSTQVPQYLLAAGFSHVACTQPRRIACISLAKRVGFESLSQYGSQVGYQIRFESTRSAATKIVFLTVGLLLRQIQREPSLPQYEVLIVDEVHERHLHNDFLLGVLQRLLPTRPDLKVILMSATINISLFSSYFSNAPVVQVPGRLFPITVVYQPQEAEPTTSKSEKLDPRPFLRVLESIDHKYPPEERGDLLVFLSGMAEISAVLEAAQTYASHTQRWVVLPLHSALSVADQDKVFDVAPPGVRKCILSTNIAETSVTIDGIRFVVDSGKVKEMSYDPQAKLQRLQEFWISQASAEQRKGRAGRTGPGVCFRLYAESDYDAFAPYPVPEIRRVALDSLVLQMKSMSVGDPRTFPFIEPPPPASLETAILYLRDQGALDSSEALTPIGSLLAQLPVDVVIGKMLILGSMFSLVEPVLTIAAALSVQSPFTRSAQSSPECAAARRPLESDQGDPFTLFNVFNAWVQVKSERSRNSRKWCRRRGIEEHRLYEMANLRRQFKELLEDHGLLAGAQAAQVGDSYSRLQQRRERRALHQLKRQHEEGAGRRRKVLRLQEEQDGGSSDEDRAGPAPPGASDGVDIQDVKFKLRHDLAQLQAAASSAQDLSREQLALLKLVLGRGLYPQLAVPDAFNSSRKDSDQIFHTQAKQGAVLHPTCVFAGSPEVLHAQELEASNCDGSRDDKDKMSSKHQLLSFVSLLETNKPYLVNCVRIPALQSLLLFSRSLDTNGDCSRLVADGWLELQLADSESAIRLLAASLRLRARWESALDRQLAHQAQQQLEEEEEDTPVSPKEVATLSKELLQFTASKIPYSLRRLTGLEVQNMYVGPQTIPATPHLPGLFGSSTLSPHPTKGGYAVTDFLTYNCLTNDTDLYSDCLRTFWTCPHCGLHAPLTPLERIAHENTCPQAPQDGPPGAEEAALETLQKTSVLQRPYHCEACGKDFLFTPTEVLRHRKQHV
UniProt Q9BSY9: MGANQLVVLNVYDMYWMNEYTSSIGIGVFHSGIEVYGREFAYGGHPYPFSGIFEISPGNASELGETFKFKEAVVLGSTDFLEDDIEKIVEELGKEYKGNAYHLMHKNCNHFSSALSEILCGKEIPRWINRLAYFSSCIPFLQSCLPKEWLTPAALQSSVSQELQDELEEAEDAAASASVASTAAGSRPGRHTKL
UniProt P10515, whole entry, looked up: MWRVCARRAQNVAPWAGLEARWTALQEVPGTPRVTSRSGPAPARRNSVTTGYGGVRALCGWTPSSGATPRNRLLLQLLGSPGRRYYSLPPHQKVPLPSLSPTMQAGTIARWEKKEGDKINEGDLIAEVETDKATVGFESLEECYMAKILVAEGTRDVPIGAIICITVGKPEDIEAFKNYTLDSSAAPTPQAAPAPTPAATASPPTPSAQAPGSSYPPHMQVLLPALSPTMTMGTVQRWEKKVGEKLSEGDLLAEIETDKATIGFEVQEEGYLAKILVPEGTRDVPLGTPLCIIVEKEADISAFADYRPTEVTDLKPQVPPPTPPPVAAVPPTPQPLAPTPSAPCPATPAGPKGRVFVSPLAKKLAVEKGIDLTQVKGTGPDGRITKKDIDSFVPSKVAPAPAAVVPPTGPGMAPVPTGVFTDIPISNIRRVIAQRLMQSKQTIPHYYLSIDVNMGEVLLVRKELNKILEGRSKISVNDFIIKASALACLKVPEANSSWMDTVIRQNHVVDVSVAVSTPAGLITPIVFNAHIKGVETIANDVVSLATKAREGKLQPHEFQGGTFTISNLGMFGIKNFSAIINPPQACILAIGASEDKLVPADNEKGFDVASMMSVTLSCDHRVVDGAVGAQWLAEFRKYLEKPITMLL
UniProt Q5VZ89: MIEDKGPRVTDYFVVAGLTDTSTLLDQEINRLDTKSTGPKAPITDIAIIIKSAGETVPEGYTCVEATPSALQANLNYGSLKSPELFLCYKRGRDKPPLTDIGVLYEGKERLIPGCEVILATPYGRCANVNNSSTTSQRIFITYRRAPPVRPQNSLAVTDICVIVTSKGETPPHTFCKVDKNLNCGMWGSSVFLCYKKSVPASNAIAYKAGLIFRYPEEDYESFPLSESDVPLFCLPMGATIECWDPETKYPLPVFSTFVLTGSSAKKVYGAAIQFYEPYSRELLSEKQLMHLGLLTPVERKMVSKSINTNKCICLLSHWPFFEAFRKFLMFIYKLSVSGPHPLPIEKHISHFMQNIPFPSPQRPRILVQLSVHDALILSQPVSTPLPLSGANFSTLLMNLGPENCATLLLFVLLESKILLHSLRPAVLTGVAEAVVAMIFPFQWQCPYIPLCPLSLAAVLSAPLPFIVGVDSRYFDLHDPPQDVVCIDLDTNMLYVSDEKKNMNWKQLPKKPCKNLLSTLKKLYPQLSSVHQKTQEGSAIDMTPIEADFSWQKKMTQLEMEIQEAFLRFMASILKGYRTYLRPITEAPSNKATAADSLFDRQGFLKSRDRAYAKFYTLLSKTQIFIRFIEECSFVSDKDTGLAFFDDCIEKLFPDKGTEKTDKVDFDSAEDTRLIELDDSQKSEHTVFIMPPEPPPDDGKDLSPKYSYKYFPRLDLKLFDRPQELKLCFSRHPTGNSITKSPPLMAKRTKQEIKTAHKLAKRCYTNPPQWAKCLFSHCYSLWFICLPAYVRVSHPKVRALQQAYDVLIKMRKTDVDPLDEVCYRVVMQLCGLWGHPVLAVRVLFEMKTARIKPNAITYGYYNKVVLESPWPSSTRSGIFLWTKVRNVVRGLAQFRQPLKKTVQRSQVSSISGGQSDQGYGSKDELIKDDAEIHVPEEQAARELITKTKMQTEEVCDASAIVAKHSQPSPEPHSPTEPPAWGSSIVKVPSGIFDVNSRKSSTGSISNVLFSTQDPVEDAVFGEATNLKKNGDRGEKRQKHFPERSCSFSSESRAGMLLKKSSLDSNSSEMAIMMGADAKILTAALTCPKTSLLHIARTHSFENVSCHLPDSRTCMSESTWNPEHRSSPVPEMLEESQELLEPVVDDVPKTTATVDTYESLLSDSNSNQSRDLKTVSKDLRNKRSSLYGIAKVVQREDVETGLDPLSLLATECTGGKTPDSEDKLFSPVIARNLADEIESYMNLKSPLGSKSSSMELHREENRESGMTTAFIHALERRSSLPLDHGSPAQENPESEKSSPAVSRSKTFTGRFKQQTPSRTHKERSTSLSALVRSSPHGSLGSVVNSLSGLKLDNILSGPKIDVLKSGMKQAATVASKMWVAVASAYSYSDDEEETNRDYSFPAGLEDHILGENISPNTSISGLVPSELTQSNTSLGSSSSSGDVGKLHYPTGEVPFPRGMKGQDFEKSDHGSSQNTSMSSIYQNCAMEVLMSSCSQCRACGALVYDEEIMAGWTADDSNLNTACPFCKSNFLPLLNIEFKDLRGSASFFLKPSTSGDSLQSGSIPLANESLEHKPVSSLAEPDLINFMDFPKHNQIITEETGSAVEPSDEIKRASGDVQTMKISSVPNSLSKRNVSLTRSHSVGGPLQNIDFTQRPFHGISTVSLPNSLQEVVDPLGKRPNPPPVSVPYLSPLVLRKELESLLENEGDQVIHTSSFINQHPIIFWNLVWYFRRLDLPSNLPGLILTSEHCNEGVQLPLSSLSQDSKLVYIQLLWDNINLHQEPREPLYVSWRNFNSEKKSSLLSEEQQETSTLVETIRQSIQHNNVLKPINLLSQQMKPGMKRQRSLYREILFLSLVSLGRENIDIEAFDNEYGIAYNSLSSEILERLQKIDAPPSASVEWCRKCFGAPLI
UniProt Q16854: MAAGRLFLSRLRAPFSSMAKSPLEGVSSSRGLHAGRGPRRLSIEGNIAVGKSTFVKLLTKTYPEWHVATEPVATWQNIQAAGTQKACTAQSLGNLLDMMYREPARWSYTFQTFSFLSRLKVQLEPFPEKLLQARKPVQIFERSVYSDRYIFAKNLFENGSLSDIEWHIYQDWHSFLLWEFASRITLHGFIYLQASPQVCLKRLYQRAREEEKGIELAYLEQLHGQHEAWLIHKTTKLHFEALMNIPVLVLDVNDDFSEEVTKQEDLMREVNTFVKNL
UniProt Q8WYQ5: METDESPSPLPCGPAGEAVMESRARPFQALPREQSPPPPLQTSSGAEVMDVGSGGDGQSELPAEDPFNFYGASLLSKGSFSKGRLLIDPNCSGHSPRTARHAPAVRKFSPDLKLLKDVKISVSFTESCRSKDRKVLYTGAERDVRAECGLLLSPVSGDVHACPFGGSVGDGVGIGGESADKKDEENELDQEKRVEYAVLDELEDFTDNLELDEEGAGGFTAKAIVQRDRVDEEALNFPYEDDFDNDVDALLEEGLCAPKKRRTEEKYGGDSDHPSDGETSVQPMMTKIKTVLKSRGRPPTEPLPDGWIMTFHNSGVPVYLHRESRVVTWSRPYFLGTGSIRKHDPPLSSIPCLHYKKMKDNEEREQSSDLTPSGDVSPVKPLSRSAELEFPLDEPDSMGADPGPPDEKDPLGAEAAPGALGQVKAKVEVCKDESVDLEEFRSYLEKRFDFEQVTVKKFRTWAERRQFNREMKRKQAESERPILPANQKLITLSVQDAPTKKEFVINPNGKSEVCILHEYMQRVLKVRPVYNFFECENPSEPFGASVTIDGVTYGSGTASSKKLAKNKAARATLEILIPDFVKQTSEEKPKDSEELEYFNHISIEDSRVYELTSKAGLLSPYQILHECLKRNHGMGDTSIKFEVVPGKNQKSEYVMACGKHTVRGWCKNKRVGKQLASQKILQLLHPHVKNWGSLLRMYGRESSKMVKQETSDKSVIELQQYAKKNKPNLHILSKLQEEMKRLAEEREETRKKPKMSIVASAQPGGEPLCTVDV
UniProt Q9P265: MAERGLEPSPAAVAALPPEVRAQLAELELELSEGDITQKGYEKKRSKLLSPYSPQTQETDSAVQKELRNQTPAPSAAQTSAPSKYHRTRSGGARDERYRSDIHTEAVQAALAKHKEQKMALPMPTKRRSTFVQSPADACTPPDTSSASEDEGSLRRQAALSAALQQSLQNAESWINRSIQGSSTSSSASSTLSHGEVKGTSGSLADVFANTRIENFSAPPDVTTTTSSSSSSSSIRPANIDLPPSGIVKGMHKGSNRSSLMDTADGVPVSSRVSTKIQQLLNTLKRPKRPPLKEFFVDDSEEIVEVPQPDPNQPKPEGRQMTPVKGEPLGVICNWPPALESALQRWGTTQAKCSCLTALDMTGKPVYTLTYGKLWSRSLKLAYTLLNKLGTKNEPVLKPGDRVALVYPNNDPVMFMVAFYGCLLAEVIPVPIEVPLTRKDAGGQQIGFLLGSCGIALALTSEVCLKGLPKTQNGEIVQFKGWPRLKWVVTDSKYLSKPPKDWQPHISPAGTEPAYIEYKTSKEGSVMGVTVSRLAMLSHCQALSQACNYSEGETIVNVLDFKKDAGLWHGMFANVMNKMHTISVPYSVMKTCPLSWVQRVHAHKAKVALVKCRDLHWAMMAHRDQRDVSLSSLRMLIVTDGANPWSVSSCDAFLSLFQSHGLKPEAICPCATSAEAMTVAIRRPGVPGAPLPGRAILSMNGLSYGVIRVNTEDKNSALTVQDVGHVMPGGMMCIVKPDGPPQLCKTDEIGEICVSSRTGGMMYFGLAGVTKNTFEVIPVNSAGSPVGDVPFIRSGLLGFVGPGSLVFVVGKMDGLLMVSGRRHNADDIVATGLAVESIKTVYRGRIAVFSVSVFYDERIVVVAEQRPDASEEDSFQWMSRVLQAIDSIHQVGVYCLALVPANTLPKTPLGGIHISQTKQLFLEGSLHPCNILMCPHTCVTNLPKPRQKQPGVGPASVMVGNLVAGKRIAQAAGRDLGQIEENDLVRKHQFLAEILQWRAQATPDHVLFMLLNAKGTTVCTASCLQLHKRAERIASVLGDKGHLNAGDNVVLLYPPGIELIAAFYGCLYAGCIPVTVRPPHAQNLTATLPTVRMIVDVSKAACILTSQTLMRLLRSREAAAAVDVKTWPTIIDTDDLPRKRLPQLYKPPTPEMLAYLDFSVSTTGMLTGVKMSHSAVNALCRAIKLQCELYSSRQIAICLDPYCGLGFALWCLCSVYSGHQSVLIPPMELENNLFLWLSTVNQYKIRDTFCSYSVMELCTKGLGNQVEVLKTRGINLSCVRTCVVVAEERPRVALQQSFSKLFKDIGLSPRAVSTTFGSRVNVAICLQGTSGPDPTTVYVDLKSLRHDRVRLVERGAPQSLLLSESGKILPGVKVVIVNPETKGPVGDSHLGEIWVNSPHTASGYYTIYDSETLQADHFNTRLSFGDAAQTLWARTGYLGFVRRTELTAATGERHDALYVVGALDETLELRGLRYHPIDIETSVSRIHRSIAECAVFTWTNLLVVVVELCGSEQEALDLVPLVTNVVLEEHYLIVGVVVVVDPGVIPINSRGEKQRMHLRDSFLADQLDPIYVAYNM

Compound: c1cn2cc(-c3ccc4cn[nH]c4c3)nc(Nc3ccc(N4CCOCC4)cc3)c2n1 [entospletinib]
Experiment: log2 fold change, soluble protein after heating vs DMSO (PISA); higher = thermal stabilisation; K562 cells, 10 uM, 30 min; active = over 0.2 and 3.5 SD of the protein, either way, in both replicates (recomputed)
In short: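 K562 cells (2×10^6 cells/mL) were treated with 10 μM compound for 30 min, and aliquots were heated for 3 min over 48°C-58°C. Pooled aliquots were extracted in PBS with 0.5% NP-40 at 4°C, and the supernatant after 21,000xg for 90 min was measured by TMTpro 16plex LC-MS/MS with channel sums equalised. Reported thermal stability, relative to control samples and from duplicates, is a log2 fold change.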

log2 fold change, inactive:
DHX34 (UniProt Q14147) 0.049
DHDDS isoform 2 (UniProt Q86SQ9) 0.033
DECR1 (UniProt Q16698) -0.021
DENR (UniProt O43583) 0.023
DHRS2 (UniProt Q13268) -0.029
DESI2 (UniProt Q9BSY9) -0.023
DHRS4 (UniProt Q9BTZ2) -0.093
DGAT1 (UniProt O75907) -0.048
DLAT (UniProt P10515) 0.071
DES (UniProt P17661) 0.044
DIS3L2 (UniProt Q8IYB7) -0.028
DHODH (UniProt Q02127) 0.01
DGKZ (UniProt Q13574) -0.001
DENND4C isoform 7 (UniProt Q5VZ89) -0.198
DGUOK (UniProt Q16854) -0.022
DNAH8 (UniProt Q96JB1) 0.185
DKC1 (UniProt O60832) 0.031
DIS3L (UniProt Q8TF46) 0.115
DGCR8 (UniProt Q8WYQ5) -0.085
DIP2B (UniProt Q9P265) -0.002
DNAAF5 (UniProt Q86Y56) 0.179
DLC1 (UniProt Q96QB1) -0.129
DLG1 isoform 2 (UniProt Q12959) -0.073

Pulled one by one from the entries so far (2):
log2 fold change, inactive:
DHRS2 (UniProt Q13268) -0.029
DIS3L (UniProt Q8TF46) 0.115
